No constants are given. Whether binding was seen depends on the method and setting. In cells and extracts the contact can be indirect. A yes stands for co-enrichment or nearness to the bait. Other partners may have been found.
Molecular target: triple-flag–tagged TGIF2a (transforming growth factor–β–induced homeobox factor 2, isoform a) (UniProt Q8C0Y1)
Experiment: affinity purification with mass spectrometry; P19 cells transfected with triple-flag TGIF2a or GFP control, lysed after 48 hours in nondenaturing buffer (20 mM tris-HCl pH 8.0, 137 mM NaCl, 1% NP-40, 2 mM EDTA); anti-FLAG antibody and Protein G Dynabeads, 4°C; hits by LFQ intensity ratio > 3 against the GFP control, two biological replicates

The chains behind the UniProt entries cited, without tags or fusion partners.
UniProt Q8C0Y1: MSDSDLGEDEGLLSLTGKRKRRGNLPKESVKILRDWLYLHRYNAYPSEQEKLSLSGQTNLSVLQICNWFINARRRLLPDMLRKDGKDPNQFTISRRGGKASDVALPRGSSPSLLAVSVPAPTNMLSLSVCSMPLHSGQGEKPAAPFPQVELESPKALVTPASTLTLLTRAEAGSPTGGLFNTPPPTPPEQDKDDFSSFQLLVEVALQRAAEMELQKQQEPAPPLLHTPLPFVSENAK
UniProt O09106: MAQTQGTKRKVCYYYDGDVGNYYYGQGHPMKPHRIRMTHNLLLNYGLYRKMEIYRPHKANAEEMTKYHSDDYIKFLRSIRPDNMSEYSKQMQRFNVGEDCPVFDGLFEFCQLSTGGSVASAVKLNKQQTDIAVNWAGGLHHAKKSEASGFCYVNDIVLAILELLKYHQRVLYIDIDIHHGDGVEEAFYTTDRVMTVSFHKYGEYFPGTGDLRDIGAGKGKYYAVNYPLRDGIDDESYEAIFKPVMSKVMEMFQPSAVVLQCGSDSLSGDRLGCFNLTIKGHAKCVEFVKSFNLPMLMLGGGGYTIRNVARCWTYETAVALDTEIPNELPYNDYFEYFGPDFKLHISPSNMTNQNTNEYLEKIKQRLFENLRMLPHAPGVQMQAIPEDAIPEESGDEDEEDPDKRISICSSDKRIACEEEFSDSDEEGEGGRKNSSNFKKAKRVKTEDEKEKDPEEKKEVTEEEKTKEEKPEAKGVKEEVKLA
UniProt P70288: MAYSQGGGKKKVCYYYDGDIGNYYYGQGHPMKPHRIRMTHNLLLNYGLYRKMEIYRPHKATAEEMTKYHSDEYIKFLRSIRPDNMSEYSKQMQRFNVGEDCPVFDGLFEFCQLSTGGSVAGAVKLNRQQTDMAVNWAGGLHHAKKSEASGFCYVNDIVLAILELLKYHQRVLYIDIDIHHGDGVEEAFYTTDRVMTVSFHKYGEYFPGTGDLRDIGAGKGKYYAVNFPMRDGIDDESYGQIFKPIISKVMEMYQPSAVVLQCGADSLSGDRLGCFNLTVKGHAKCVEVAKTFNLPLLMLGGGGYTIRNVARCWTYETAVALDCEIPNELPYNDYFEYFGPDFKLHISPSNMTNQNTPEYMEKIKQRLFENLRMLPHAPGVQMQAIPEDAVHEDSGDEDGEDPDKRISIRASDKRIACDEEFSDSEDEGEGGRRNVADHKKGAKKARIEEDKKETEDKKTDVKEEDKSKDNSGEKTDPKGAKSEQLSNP
UniProt O54962: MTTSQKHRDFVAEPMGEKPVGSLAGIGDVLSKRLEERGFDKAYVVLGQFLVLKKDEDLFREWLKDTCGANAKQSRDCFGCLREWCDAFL
UniProt P11103: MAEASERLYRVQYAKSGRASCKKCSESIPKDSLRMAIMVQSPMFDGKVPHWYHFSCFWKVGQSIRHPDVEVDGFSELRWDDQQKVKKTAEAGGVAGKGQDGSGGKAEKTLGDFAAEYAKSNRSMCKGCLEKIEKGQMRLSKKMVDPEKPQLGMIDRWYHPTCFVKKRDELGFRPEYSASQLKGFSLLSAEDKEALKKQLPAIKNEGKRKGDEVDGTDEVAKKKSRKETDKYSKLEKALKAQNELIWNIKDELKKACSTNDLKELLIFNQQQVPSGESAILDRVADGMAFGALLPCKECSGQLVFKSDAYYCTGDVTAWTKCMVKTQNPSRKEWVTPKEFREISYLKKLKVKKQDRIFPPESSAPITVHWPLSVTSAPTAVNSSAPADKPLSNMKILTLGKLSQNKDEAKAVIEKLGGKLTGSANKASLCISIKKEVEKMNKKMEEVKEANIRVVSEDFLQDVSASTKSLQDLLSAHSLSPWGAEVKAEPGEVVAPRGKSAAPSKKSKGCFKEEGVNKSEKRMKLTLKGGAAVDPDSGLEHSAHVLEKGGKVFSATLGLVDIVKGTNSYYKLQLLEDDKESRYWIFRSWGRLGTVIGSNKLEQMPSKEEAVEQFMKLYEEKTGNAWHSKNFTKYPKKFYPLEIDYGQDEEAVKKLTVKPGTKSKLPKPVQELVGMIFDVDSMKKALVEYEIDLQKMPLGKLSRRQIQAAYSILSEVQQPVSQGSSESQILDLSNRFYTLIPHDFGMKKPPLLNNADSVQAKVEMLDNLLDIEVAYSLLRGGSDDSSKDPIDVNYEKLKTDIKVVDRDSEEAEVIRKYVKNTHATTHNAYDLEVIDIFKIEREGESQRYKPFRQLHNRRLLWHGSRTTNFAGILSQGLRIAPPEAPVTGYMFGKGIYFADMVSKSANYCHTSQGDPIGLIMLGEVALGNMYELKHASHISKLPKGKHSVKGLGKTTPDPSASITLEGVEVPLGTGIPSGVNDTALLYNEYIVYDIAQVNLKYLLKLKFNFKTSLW
UniProt Q8VEE4: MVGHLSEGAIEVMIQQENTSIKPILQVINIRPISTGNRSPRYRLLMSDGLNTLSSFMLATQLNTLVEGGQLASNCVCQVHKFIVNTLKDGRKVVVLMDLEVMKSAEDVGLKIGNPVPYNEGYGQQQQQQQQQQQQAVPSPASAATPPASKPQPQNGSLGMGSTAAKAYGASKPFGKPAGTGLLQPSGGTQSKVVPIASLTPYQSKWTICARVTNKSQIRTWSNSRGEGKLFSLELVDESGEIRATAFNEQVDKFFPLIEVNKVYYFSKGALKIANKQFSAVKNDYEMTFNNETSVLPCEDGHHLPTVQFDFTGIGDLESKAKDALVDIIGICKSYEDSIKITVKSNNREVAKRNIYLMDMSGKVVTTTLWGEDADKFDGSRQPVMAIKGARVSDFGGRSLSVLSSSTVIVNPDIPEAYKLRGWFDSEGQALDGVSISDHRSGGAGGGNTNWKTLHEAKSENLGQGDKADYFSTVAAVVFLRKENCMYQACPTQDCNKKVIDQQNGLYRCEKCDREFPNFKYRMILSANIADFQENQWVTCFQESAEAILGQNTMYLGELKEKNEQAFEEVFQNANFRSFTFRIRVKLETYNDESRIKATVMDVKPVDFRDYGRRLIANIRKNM
UniProt Q62193: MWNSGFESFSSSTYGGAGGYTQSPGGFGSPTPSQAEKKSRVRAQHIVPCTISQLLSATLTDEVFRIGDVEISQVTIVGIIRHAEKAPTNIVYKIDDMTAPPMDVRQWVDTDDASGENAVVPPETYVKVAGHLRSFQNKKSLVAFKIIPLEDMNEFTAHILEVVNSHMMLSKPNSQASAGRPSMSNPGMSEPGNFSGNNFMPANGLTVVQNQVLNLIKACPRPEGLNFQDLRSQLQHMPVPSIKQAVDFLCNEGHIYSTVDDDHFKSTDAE
UniProt Q9CQ71: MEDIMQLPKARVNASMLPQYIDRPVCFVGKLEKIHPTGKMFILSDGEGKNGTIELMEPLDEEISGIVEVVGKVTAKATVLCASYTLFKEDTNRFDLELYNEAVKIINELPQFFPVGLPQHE

binding, binds:
HDAC1 (from UniProt O09106 1-482)
HDAC2 (from UniProt P70288 1-488)
barrier to autointegration factor 1 (from UniProt O54962 1-89)
poly(ADP-ribose) polymerase 1 (from UniProt P11103 1-1013)
replication protein A 1 (from UniProt Q8VEE4 1-623)
replication protein A 2 (from UniProt Q62193 1-270)
replication protein A 3 (from UniProt Q9CQ71 1-121)

Source: PMC13308598
